These results are taken from PMC7962367.

Amino acid sequences for entries named in this document (tags omitted). A change or cut given only in a name is not applied to a line headed by its entry.
UniProt Q8R5H1: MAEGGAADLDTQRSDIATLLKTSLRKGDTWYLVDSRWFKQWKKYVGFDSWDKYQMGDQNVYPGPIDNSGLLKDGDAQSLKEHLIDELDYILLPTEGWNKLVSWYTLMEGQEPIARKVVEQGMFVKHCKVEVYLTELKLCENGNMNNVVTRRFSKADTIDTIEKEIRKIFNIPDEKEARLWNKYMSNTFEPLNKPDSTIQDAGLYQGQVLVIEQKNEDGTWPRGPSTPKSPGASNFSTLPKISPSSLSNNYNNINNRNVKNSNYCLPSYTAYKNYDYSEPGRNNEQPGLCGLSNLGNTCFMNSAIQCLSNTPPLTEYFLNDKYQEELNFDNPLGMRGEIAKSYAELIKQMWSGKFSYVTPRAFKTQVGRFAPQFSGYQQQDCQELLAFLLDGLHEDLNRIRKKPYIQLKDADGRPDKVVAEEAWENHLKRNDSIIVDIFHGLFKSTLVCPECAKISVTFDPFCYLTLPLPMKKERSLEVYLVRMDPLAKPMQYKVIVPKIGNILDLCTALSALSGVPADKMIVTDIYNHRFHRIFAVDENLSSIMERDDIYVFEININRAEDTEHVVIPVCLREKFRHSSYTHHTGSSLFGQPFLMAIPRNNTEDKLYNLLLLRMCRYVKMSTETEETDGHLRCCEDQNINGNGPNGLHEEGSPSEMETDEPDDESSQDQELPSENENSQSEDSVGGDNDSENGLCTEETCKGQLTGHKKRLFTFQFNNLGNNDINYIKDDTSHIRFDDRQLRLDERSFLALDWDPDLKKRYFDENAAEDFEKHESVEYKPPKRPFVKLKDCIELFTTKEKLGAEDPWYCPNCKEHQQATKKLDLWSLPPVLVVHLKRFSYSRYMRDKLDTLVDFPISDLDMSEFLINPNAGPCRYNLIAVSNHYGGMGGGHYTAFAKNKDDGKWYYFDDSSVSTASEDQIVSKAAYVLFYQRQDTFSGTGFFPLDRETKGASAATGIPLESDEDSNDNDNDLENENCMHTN
UniProt P63085: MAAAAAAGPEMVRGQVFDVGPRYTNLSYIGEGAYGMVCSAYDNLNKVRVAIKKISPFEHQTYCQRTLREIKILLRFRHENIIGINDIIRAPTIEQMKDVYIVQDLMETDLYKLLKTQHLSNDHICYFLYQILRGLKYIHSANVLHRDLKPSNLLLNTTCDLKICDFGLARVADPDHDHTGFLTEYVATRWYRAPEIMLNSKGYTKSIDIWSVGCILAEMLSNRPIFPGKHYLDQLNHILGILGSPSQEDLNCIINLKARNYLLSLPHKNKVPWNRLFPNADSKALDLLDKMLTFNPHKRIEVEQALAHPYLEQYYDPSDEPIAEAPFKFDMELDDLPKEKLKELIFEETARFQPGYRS

This test concerns the target Flag-tagged USP15 (mouse (from the prefix m in mUSP15)) (UniProt Q8R5H1). The test is described as follows: co-IP; 293T cells co-transfected with Flag-USP15 and HA-ERK2; lysates in RIPA buffer immunoprecipitated with anti-HA or anti-Flag antibodies and Protein A/G PLUS-Agarose; blots with anti-Flag or anti-HA.

Results are given in words; binding and its absence hold for the method and conditions named. In cells and extracts the contact can be indirect. Binding calls can cover weak binding; strength is not graded here.

In the case of “HA-tagged ERK2 (from UniProt P63085 1-358) (enzyme)”, the binding result is recorded as “binds”.
